The values that follow come from paper PMC4155172, “Killing of melanoma cells and their metastases by human lactoferricin derivatives requires interaction with the cancer marker phosphatidylserine” (Biometals, 2014).

Values joined by “and” are separate entries in the source; they are usually repeats but may differ in a detail not shown here. Identical values can stand only once. Where a SMILES comes first, the peptide text is derived from it. The star is where a group is joined. Octanoyl(6-Me) = CCC(C)CCCCC(=O)*

Data set [1] in a line: Tryptophan fluorescence and acrylamide quenching with DPPS membranes. To be noted: for λem,max in DPPS: lipid to peptide ratio 25:1; for KSV in DPPS: lipid to peptide ratio 25:1, acrylamide quenching. How it is done:
(§1) Appropriate amounts of respective phospholipid stock solution were dried under a stream of nitrogen and stored in vacuum overnight to completely remove organic solvents. The dry lipid film was then dispersed in phosphate buffered saline (PBS, 20 mM NaPi, 130 mM NaCl, pH 7.4) and hydrated at a temperature well above the gel to fluid phase transition of the respective phospholipid under intermittent vigorous vortex-mixing. The lipid concentration was 0.1 weight % for calorimetric and 2 % for leakage experiments. Hydration was carried out in presence or absence of peptides at a lipid-to-peptide ratio of 25:1 and 12.5:1 using a protocol described for POPS (Jiménez-Monreal et al. [1998]), DPPS (Jing et al. [2005]) and DPPC (Sevcsik et al. [2007]). Briefly hydration of POPS films occurred at 30 °C, DPPS at 65 °C and DPPC at 50 °C, for 2 h with vortexing for 1 min every 15 min. The hydration of the lipid mixtures DPPS/DPPC 1:5 and DPPS/DPPC 1:1 were performed at 65 °C for 2 h by vortexing accompanied by one freeze–thaw cycle every 15 min. The fully hydrated samples were stored for at least 1 h at room temperature until measurement.
(§2) Fluorescence spectroscopy experiments were performed using a SPEX Fluoro Max-3 spectrofluorimeter (Jobin–Yvon, Longjumeaum, France) and spectra were analyzed with Datamax software.
(§3) Tryptophan fluorescence spectra were obtained at room temperature using an excitation wavelength of 282 nm and a slit width of 5 nm for excitation and emission monochromators. Quenching of Tryptophan was carried out in the presence and absence of phospholipid liposomes (lipid-to-peptide ratio 25:1) using 0.1, 0.4 and 0.7 M acrylamide. The data were analyzed according to the Stern–Volmer equation (Eq. 2):2 F0F0FF=1+KSVQ where F0 and F represent the fluorescence emission intensities in the absence and presence of the quencher molecule (Q) and KSV is the Stern–Volmer quenching constant, which is a quantitative measure for the accessibility of tryptophan to acrylamide (Tao and Cho [1979]).

Data set [2] in a line: Tryptophan fluorescence and acrylamide quenching in PBS. Type of data set: physicochemical. To be noted: room temperature; for λem,max in PBS: Trp emission; for KSV in PBS: acrylamide 0.1, 0.4, 0.7 M, excitation 282 nm.
Data set [3] is described as follows: Tryptophan fluorescence and acrylamide quenching with POPS membranes. To be noted: for λem,max in POPS: lipid to peptide ratio 25:1; for KSV in POPS: lipid to peptide ratio 25:1, acrylamide quenching.
Data set [4] in a line: Tryptophan fluorescence and acrylamide quenching with DPPC membranes. To be noted: for λem,max in DPPC: lipid to peptide ratio 25:1; for KSV in DPPC: lipid to peptide ratio 25:1, acrylamide quenching. The procedure:
as §1, §2, §3

`CCC(C)CCCCC(=O)N1CCC[C@H]1C(=O)N[C@@H](Cc1ccccc1)C(=O)N[C@@H](Cc1c[nH]c2ccccc12)C(=O)N[C@@H](CCCNC(=N)N)C(=O)N[C@H](C(=O)N[C@@H](CCCNC(=N)N)C(=O)N[C@H](C(=O)N[C@@H](CCCNC(=N)N)C(=O)N[C@@H](CCCNC(=N)N)C(N)=O)[C@@H](C)CC)[C@@H](C)CC` (stereo partly drawn) [6-MO-LF11-322] ({Octanoyl(6-Me)}-PFWRIRIRR-NH2): in data set [1], the “λem,max in DPPS” value worked out at 337 nm and the “KSV in DPPS” value was determined as 7.0 M⁻¹. In data set [2], the “λem,max in PBS” value came to 353 nm; the “KSV in PBS” value was ~ 20 M^−1 and 24.5 M^−1. In addition, in data set [3], the “λem,max in POPS” value came out at 342 nm and the “KSV in POPS” value was 4.5 M⁻¹. Further, in data set [4], the “λem,max in DPPC” value was found to be 344 nm and the “KSV in DPPC” value came out at 10.5 M⁻¹.

For the compound PFWRIRIRR-NH2 [LF11-322], in data set [1], the “λem,max in DPPS” value came to 334 nm and the “KSV in DPPS” value is 7.9 M⁻¹. Also, in data set [2], the “λem,max in PBS” value is listed as 354 nm; the “KSV in PBS” value was ~ 20 M^−1 and 19.7 M^−1. Further, in data set [3], the “λem,max in POPS” value is listed as 338 nm and the “KSV in POPS” value stood at 5.4 M⁻¹. In addition, in data set [4], the “λem,max in DPPC” value was determined as 354 nm and the “KSV in DPPC” value was 8.8 M⁻¹.

Consider “PFWRIRIRRPRRIRIRWFP-NH2 [R-DIM-P-LF11-322, retro repeat derivative: LF11-322-proline-LF11-322 retro]”, for which, in data set [1], the “λem,max in DPPS” value worked out at 335 nm and the “KSV in DPPS” value was 4.3 M⁻¹. In data set [2], the “λem,max in PBS” value was found to be 353 nm; the “KSV in PBS” value is ~ 20 M^−1 and 19.1 M^−1. In addition, in data set [3], the “λem,max in POPS” value was determined as 334 nm and the “KSV in POPS” value was found to be 4.1 M⁻¹. Moreover, in data set [4], the “λem,max in DPPC” value was found to be 352 nm and the “KSV in DPPC” value was found to be 13.2 M⁻¹.
